In the experiment the target is AKT (also known as protein kinase B) (mouse (endogenous in hippocampus)). Nature of the experiment: co-IP; whole hippocampus of P2X7R KO mice 7 days after KA, lysed in RIPA buffer; AKT antibody and protein G Sepharose overnight at 4 °C; Western blot; mice infused with control siRNA or HSP25 siRNA. (A western blot detects proteins with antibodies after separation by electrophoresis.)

No constants are given. Whether binding was seen depends on the method and setting. In cells and extracts the contact can be indirect. A result given as binding can be weak or reduced; the word gives no strength.

In PMC7555659 one finds binding data, which are given here for one molecule.

B1: pleckstrin homology domain and leucine-rich repeat protein phosphatase 2 (protein, UniProt Q8BXA7 1-1320)
chain: MKHNGSRTCLNRRSRFGSRERDWLREDVKRGCVYLYGADTTTATTTTSSSSSSSSSSDLHLVLCTVETPASEICAGEGRESLYLQLHGDLVRRLEPSERPLQIVYDYLSRLGFEDPVRIQEEATNPDLSCMIRFYGEKPCQMDHLDRILLSGIYNVRKGKTQLHKWAERLVVLCGTCLIVSSVKDCQTGKMHILPLVGGKIEEVKRRQHSLAFSSAGAQAQTYHVSFETLAEYQRWQRQASKVVSQRMSTVDLSCYSLEEVPEHLFYSQDITYLNLRHNFMQLERPGGLDTLHKFSQLKGLNLSHNKLGLFPVLLCEISTLTELSLSCNGFHDLPSQIGKLLNLQTLSLDGNGLTALPDELGNLRQLTSLGISFNDFRHIPEVLEKLTMLDKVAMAGNRLEVLNLGALTRMSQVKHVDLRMNHLKTVITENMEGNKHITHMDLRDNQLTDLDLSSLCSLEQLHCERNQLRELTLSGFSLRTLYASWNRLTAVNVYPVPSLLTSLELSQNLLECVPDWACEAKKLEILDISHNLLTEVPMRILSSLSLRKLMVGHNHIHVLPALVEHIPLEVLDIQHNTLSRLPDTLFSKALNLRYLNASANSLESLPSACAGEESLSVLQLLYLTSNLLTDQCIPVLVGHPHLRVLHLANNQLQTFPASKLNKLEQLEELNLSGNKLTAIPTTIANCKRLHTLVAHANNISIFPEILQLPQIQFVDLSCNDLTEILIPEALPATLQDLDLTGNTNLVLEHKTLDMFSHITALKIDQKPLPATDSAVTSTFWSHGLAEMAGQRNKLCVSALAMDNFAEGVGAVYGMFDGDRNEELPRLLQCTMADVLLEEVQHSTNDTVFMTNTFLVSHRKLGMAGQKLGSSALLCYIRPDTADPTSSFSLTVANVGMCQAVLCRGGKPVPLSKVFSLEHDPEEAQRVKDQKAIITEDNKVNGVTCCTRLLGCTYLYPWILPKPHIASTPLTIQDELLILGNKALWEHLSYLEAVNAVRHVQDPLAAAKKLCTLAQSYGCQDNVGAMVVYLNIGEEGCTCEMNGLTLPGPVGFASTAALKDTPKPTTPSSSSGIASEFSSEMSTSEVSSEVGSTASDEHNTVGLEASLLPRPERRCSLHPASSAGVFQRQPSCATFSSNQSDNGLDSDDDQPVEGVITNGSRVEVEVDIHCCRGREPESSPPLPKNSSNACSEERARGAGFGIRRQNSVNSGILLPANRDKMELQKSPSTSCLYGKKLSNGSIVPLEDSLNLIEVATEAPKRKTGYFAAPTQLEPEDQFVVPRDLEEEVKEQMKQHQEGRPEPEPRGEERTEPLEEFDTAL
Regarding B1, the binding result is “binds”.
